# Primary screen of a compound library

Protein sequences, listed by entry. Tags and fused reporters are not part of them.
UniProt E9BF75, entry or part of it: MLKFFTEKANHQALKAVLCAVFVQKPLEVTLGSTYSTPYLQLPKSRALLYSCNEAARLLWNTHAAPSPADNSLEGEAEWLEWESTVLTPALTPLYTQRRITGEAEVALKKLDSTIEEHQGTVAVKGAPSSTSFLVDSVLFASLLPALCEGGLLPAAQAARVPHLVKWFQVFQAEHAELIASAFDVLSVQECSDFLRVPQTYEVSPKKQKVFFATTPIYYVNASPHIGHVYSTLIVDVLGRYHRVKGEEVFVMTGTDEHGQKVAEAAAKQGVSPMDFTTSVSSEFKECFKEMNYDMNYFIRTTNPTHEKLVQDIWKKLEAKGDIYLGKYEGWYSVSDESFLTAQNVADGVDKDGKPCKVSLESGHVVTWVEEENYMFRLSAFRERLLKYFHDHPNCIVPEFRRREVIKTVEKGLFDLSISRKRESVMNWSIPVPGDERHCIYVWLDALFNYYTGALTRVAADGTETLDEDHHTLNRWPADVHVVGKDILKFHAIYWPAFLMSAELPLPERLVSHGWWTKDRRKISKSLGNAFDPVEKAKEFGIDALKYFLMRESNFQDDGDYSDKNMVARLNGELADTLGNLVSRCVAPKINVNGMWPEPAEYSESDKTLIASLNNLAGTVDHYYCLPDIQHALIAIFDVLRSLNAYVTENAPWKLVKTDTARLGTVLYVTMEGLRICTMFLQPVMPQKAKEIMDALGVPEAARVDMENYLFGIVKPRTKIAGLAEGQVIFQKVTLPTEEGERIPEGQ

LdMetRS: 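Methionyl-tRNA synthetase (putative), Leishmania donovani (UniProt E9BF75). Primary screen of methionyl-tRNA synthetase; the read-out is not stated. The test concentration is not given. Values are per cent inhibition. Size under these conditions: about 68,000 compounds, about 24 of them at 50% or above in at least one test.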
Mtb heat-shock: 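Assay on Mycobacterium tuberculosis, filed only as a heat shock assay from Cornell; the read-out is not stated. The concentration is filed as 10 mM, unlikely as a test dose, so the dose is not known. Direction is inferred from retests: higher values go with stronger inhibition. Of about 69,000 compounds tested this way, about 930 (1.4%) reached 50% or more in at least one test.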

Results are percentages, as filed.
The record does not define 0% and 100%; most values in the screen are far below 50% and negative numbers occur (in some assays of this library far below -100).
Compounds were drawn at random from those tested, without regard to their results.
A dash means the value is not listed here; it may have been measured.

structure | LdMetRS | Mtb heat-shock
O=C(COc1cccc(Br)c1)N1CCOCC1c1ncon1 (stereo unspecified) | 7.19% | 6.29%
CCS(=O)(=O)NC[C@]12COC[C@H]1CN(Cc1sccc1C)C2 | 21.27% | -
Cc1cccc(NC(=O)C(C)Oc2ccc3c(c2)OCO3)n1 (stereo unspecified) | 7.196% | -6.983%
CC(NC1CCN(C(=O)C2CCCCC2)CC1)c1nccs1 (stereo unspecified) | 1.319% | -4.585%
Cc1cncc(NC(=O)c2ccc(CN3CCCC(C(N)=O)C3)cc2)c1 (stereo unspecified) | 5.584% | -11.36%
CC(C)(C)NC(=O)NC(=O)CNC(C)(C)c1ccc2c(c1)OCCO2 | 11.76% | 8.073%
Cc1cc(C)c(S(N)(=O)=O)cc1C(=O)NCCN1CCC(C)CC1 | 7.094% | 24.87%
Cc1cc(C(=O)N2CCc3nnc(N(C)C)cc3C2)c(C)n1C1CC1 | 22.92% | 14.02%
NC(=O)NC(=O)CCSCc1cc(F)cc2cccnc12 | 18.05% | -8.358%
COCCN1C[C@H]2CN(C(=O)C3CC3)CCN2C1=O | 6.593% | -
N#Cc1ccc(N2CCC(c3nccn3Cc3cscn3)CC2)nc1 | 17.32% | -36.41%
Cc1cccc(C(=O)Nc2cccc3c2CCCC3)n1 | 9.409% | -24.9%
c1ccc(CO[C@H]2CO[C@@]3(CCCN(Cc4cccnc4)C3)C2)nc1 | 5.476% | -
Cc1ncc(CN2CCC3(CC2)CC(=O)N(C)C3)cn1 | 4.348% | 4.342%
O=C(CS(=O)(=O)Cc1ccccc1)NCc1ccccc1F | 8.934% | -3.25%
CC(C)N(CCNCc1ccc(C#N)cc1)C1CC1 | 10.82% | -18.12%
N[C@H]1CN(C(=O)Cc2ccc(CO)cc2)C[C@@H]1C1CC1 | 9.712% | -18.49%
Cc1nn(C)cc1-c1cncn1CCc1ccc2c(c1)OCCO2.Cl | - | -2.438%
[H][C@@]12CCN(C(=O)c3ccnnc3)C[C@@]1([H])O[C@@H](c1nc(C)cs1)C2 | - | 13.59%
COc1cc(CNC2CCc3nc(C(C)C)nn3C2)cc2c1OCO2 (stereo unspecified) | 7.874% | -38.04%
COc1ncccc1NC(=O)C1CCS(=O)(=O)C1 (stereo unspecified) | 12.55% | -0.7074%
O=C(Nc1ccc2c(c1)OCO2)N1CCN(CCn2ccnc2)CC1 | 8.696% | 10.39%
Cc1cc(NC(=O)NCC(C)N2CCc3ccccc32)no1 (stereo unspecified) | 14.98% | 28.79%
Cc1ccc(NC(=O)Nc2c(O)oc3ccccc3c2=O)cc1 | -3.683% | 1.086%
COCc1cncc2c1CCN(Cc1cccs1)C2 | 0.3205% | -
Cc1ccc(C(=O)N2CCC3(CCC(=O)N(CC(N)=O)C3)CC2)cc1 | 9.915% | -2.763%
Fc1ccc(N2CCC3(CC2)CC(OCc2cccnc2)CO3)cc1.O=C(O)C(F)(F)F (stereo unspecified) | - | -11.65%
O=C(Cc1cccc(F)c1F)N1CCOC(c2cccc(O)c2)C1 (stereo unspecified) | 19.55% | -6.666%
CNC(=O)CN1CCCC12CCN(C(=O)c1ccoc1)CC2 | 4.482% | -
COCC1CC2(CCN(C(=O)c3cccc(C)c3)CC2)CO1 (stereo unspecified) | 7.843% | -9.644%
CC(C)N(C)C(=O)CSCc1ccc(S(=O)(=O)N(C)C)o1 | 2.899% | 7.686%
COc1cccc(CCC(=O)N2CCN(Cc3noc(C)n3)CC2)c1 | 9.964% | 19.11%
Cn1cc(CN2CCCC23CCN(c2nc4ccccc4s2)CC3)cn1 | 11.04% | 10.22%
CC(O)c1cn(Cc2ccc(Cl)cc2)nn1 (stereo unspecified) | 16.71% | 16.84%
Cc1noc(C)c1CN1CC[C@H]2C[C@@H](c3ccncn3)O[C@@H]2C1 | 17.85% | -
COc1cccc2c1OCC(CNC(=O)Cn1ccnc1C)C2 (stereo unspecified) | 10.65% | -21.61%
COCCNC(=O)Cn1cc2c(n1)c(C)nn2C | 18.82% | 2.353%
COC(=O)CCC(=O)N1CCc2nc(C(=O)N3CCCCC3)sc2CC1 | 7.609% | -7.112%
CC(C)c1nc(C2CCCN(C(=O)c3ccc4nccn4c3)C2)no1 (stereo unspecified) | 13.89% | 6.435%
Cc1cnn(CC2CN(CCS(=O)(=O)c3ccccc3)CCO2)c1 (stereo unspecified) | 8.55% | -13.11%
CN1CCc2c(C#N)c(NCCCN3CCOCC3)n3cnnc3c2C1.Cl.Cl | - | 8.412%
NC(=O)COCCNC(=O)Nc1sc2ccccc2c1Cl | 6.534% | 16.51%

The values are deposited in ChEMBL (CHEMBL3988442, “University of Dundee, Small-Polar-MMV Screening Library” (2021)).